PubChem BioAssay AID1259254 – NCATS, 2017
Purpose: 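Gene knock-downs that lead to re-replication, shown by excess G2 DNA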 (primary screen). Cell system: human HCT116 colorectal cancer cells. Reagents: single siRNA against human genes. Duration: 3 days. Measurement: 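Imaged Hoechst DNA stain sorts each cell into a cycle phase by DNA amount; per plate, G2 fraction set to 0% for non-targeting and 100% for GMNN siRNA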. Direction: G2 robust z-score and G2 cells, % of GMNN control: higher = more G2 cells, more excess DNA replication; raw share of cells in G2: higher = larger share of cells with G2 DNA content. Call rule: 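Active siRNAs have a G2 robust z of 5 or more median absolute deviations over the median, which in these data means about 38% or higher of GMNN control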.
Shown is a random part of about 59,000 deposited reagents. Of all reagents, about 1,550 (2.6%) are marked active. 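G2 share is only a proxy for re-replication; each gene was hit by three separate siRNAs, and active genes were retested.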 The raw values are shown without normalisation. Reagents against one gene are numbered here. Not given: the amount of reagent.

gene symbol | reagent no. | G2 robust z-score | G2 cells, % of GMNN control | raw share of cells in G2 (%) | call
ZNF324 | 1 | -0.653 | -1.62 | 2.22 | inactive
ZNF324 | 2 | 0.443 | 6.09 | 8.66 | inactive
ZNF324 | 3 | -0.551 | -0.91 | 3.35 | inactive
KLHL14 | 1 | -0.449 | -0.192 | 4.27 | inactive
KLHL14 | 2 | -0.383 | 0.272 | 4.59 | inactive
KLHL14 | 3 | -0.729 | -2.16 | 2.35 | inactive
MYO1A | 1 | -0.623 | -1.42 | 2.73 | inactive
MYO1A | 2 | -1.4 | -6.9 | 2.69 | inactive
MYO1A | 3 | -1.17 | -5.24 | 3.39 | inactive
DCAF16 | 1 | 1.4 | 12.8 | 8.18 | inactive
DCAF16 | 2 | -0.357 | 0.458 | 4.46 | inactive
DCAF16 | 3 | -1.05 | -4.4 | 1.74 | inactive
SLC6A5 | 1 | -0.553 | -0.923 | 4.94 | inactive
SLC6A5 | 2 | -0.0958 | 2.29 | 5.58 | inactive
SLC6A5 | 3 | 3.55 | 27.9 | 14.7 | inactive
RPL21P44 | 1 | 2.44 | 20.1 | 11.1 | inactive
RPL21P44 | 2 | -0.227 | 1.37 | 4.06 | inactive
RPL21P44 | 3 | -0.558 | -0.959 | 4.39 | inactive
MYO1E | 1 | 0.425 | 5.96 | 7.83 | inactive
MYO1E | 2 | 0.304 | 5.11 | 7.33 | inactive
MYO1E | 3 | -0.1 | 2.26 | 3.94 | inactive
ACTRT2 | 1 | -0.869 | -3.15 | 4.46 | inactive
ACTRT2 | 2 | 5.32 | 40.4 | 19.5 | active
ACTRT2 | 3 | -0.832 | -2.89 | 3.49 | inactive
EXD3 | 1 | 0.344 | 5.39 | 5.53 | inactive
EXD3 | 2 | -0.312 | 0.773 | 4.6 | inactive
EXD3 | 3 | -0.777 | -2.5 | 2.37 | inactive
SDR9C7 | 1 | -0.633 | -1.48 | 3.92 | inactive
SDR9C7 | 2 | -0.69 | -1.88 | 4.16 | inactive
SDR9C7 | 3 | -1.31 | -6.26 | 2.76 | inactive
CAD | 1 | -0.333 | 0.624 | 4.22 | inactive
CAD | 2 | -1.32 | -6.33 | 2.82 | inactive
CAD | 3 | 3.34 | 26.4 | 13.7 | inactive
HINT3 | 1 | -0.802 | -2.68 | 4.68 | inactive
HINT3 | 2 | -0.956 | -3.76 | 3.33 | inactive
HINT3 | 3 | 0.891 | 9.24 | 8.58 | inactive
PCK2 | 1 | 4.23 | 32.7 | 17.6 | inactive
PCK2 | 2 | 0.862 | 9.03 | 8.42 | inactive
PCK2 | 3 | -0.262 | 1.12 | 3.58 | inactive

7 of these entries in another layout.
gene symbol	reagent no.	G2 robust z-score	G2 cells, % of GMNN control	raw share of cells in G2 (%)	call
ZNF324	1	-0.653	-1.62	2.22	inactive
ZNF324	2	0.443	6.09	8.66	inactive
ZNF324	3	-0.551	-0.91	3.35	inactive
KLHL14	1	-0.449	-0.192	4.27	inactive
KLHL14	2	-0.383	0.272	4.59	inactive
KLHL14	3	-0.729	-2.16	2.35	inactive
MYO1A	1	-0.623	-1.42	2.73	inactive

Next records:
gene symbol | reagent no. | G2 robust z-score | G2 cells, % of GMNN control | raw share of cells in G2 (%) | call
ORC1 | 1 | 1.08 | 10.6 | 9.19 | inactive
ORC1 | 2 | -0.775 | -2.49 | 3.74 | inactive
ORC1 | 3 | 3.38 | 26.8 | 12.3 | inactive
PRSS47P | 1 | -0.212 | 1.48 | 4.73 | inactive
PRSS47P | 2 | 1.8 | 15.6 | 8.06 | inactive
PRSS47P | 3 | 1.47 | 13.3 | 7.4 | inactive
ST6GAL2 | 1 | -0.569 | -1.03 | 5 | inactive
ST6GAL2 | 2 | -0.879 | -3.22 | 3.03 | inactive
ST6GAL2 | 3 | 0.00246 | 2.98 | 5.89 | inactive
PPP1R12C | 1 | 2.25 | 18.8 | 10.9 | inactive
PPP1R12C | 2 | 0.954 | 9.68 | 7.22 | inactive
PPP1R12C | 3 | -0.916 | -3.47 | 2.45 | inactive
MON1B | 1 | -1.1 | -4.8 | 3.1 | inactive
MON1B | 2 | -0.749 | -2.3 | 3.19 | inactive
MON1B | 3 | -0.927 | -3.55 | 1.84 | inactive
SHARPIN | 1 | -0.922 | -3.52 | 3.48 | inactive
SHARPIN | 2 | 1.25 | 11.7 | 8.45 | inactive
SHARPIN | 3 | -1.04 | -4.34 | 3.62 | inactive
SOX2 | 1 | 0.577 | 7.02 | 8.05 | inactive
SOX2 | 2 | -1.12 | -4.92 | 2.86 | inactive
SOX2 | 3 | -0.638 | -1.52 | 3.45 | inactive
WDR5 | 1 | 0.371 | 5.58 | 7.17 | inactive
WDR5 | 2 | -0.904 | -3.39 | 2.73 | inactive
WDR5 | 3 | -0.199 | 1.57 | 3.76 | inactive
NPFFR1 | 1 | -0.838 | -2.93 | 2.37 | inactive
NPFFR1 | 2 | -1.06 | -4.48 | 4.24 | inactive
NPFFR1 | 3 | -0.117 | 2.14 | 5.27 | inactive
INF2 | 1 | -0.208 | 1.5 | 5.23 | inactive
INF2 | 2 | 0.229 | 4.58 | 6.66 | inactive
INF2 | 3 | -0.715 | -2.06 | 2.15 | inactive
IYD | 1 | 0.918 | 9.43 | 9.98 | inactive
IYD | 2 | 0.79 | 8.52 | 8.29 | inactive
IYD | 3 | -0.748 | -2.3 | 3.45 | inactive
TIMP4 | 1 | -0.366 | 0.393 | 4.53 | inactive
TIMP4 | 2 | -0.166 | 1.8 | 5.39 | inactive
TIMP4 | 3 | 3.34 | 26.5 | 14.9 | inactive
FOXRED2 | 1 | 1.12 | 10.9 | 9.96 | inactive
FOXRED2 | 2 | 0.783 | 8.48 | 7.26 | inactive
FOXRED2 | 3 | 1.87 | 16.1 | 10.8 | inactive
NXF2 | 1 | -0.777 | -2.5 | 5.34 | inactive
NXF2 | 2 | -1.07 | -4.55 | 2.44 | inactive
NXF2 | 3 | 0.691 | 7.83 | 7.24 | inactive
IFNL1 | 1 | 1.28 | 12 | 8.01 | inactive
IFNL1 | 2 | 2.21 | 18.5 | 10.2 | inactive
IFNL1 | 3 | 1.45 | 13.2 | 7.27 | inactive
ME3 | 1 | 0.431 | 6 | 8.3 | inactive
ME3 | 2 | 3.35 | 26.6 | 12.4 | inactive
ME3 | 3 | 1.41 | 12.9 | 11.6 | inactive
